# From the supplement of paper PMC12889115
# This is one part of the list. Values are raw readings; no control value is given beside them.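 Primary screen: polymyxin B was added at a level permeabilizing Salmonella outer membranes while sparing inner membranes. DMSO wells, both with and without polymyxin B, established maximum growth. Plate-to-plate variation meant each plate was ranked on its own, and the lowest-OD600 compounds were selected as hits.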
# System: Salmonella enterica serovar Typhimurium SL1344
# Assay: bacterial growth OD600 after 18 h with compound and polymyxin B; higher = more bacterial growth (less inhibition)
# Details: 50 µM, Mueller-Hinton broth
SMILES,bacterial growth OD600 (polymyxin B 1 µg/mL),bacterial growth OD600 (polymyxin B 0.75 µg/mL)
COc1ccc2ccc(OCc3nc(C(=O)N4CCC(C)CC4)co3)cc2c1,0.61,–
O=C(CSc1ncccn1)NCC1Cc2cc(-c3ccsc3)cc(Cl)c2O1 (configuration not stated),–,0.01
Cc1c(C(C)NCc2cccc3cnccc23)cnn1-c1ccc(F)cc1F (configuration not stated),–,0.751
CN(C)c1ccc(C(=O)N2CCC(Cn3cccn3)CC2)cn1,–,0.82
Cc1cc(-c2nnc(CCC(=O)NCC(C)c3ccccc3)o2)no1 (configuration not stated),0.829,–
CN(C(=O)C1CC1)C(Cc1ccc(F)cc1F)C1CCN(C(=O)C2CC(=O)c3ccccc32)CC1 (configuration not stated),–,0.841
O=C(CCn1cnnn1)N1CCCC(CCc2ccccc2F)C1 (configuration not stated),–,0.773
COCCN1C(=O)NC(Cc2ccccc2Cl)(C2CCN(C(=O)c3cc(C)ccc3C)CC2)C1=O (configuration not stated),–,0.852
COc1cccc(CCc2nnc(CCC(=O)NCCC(C)C)o2)c1,–,0.785
COc1ccc(C(=O)C2CCCN(C(=O)c3ccc4oc(C)cc4c3)C2)c(C)c1 (configuration not stated),0.522,–
Cc1cc(Cl)c2oc(C(=O)N(CCO)Cc3ccccc3)c(C)c2c1,0.001,–
CCc1noc(C)c1C(=O)N1CCC2(CCCN(CC(C)(C)C)C2=O)C1 (configuration not stated),0.901,–
CCOC(=O)C1(Cc2ccc(F)cc2F)CCCN(C(=O)Cc2cccnc2)C1 (configuration not stated),0.693,–
COCCNC(=O)c1ccc(OC)cc1OC1CCN(C/C=C/C(C)C)CC1,1.04,–
CCN1CCCC(CN(C)c2nc3nonc3nc2NCCCOC)C1 (configuration not stated),–,0.81
CCN1CCc2onc(C(c3ccccc3)c3ccccc3)c2C1,–,0.306

SMILES,bacterial growth OD600 (polymyxin B 1 µg/mL),bacterial growth OD600 (polymyxin B 0.75 µg/mL)
CCS(=O)(=O)N1CCC2(CCCN(Cc3cccc(F)c3F)C2=O)C1 (configuration not stated),0.889,–
COCCO[C@H]1[C@H](NC(=O)C(C)C)c2ccccc2C12CCN(C(=O)CCc1cccs1)CC2,–,0.846
COc1ccc(NC(=O)CCC2CCCN(C(=O)CCC(=O)c3ccccc3)C2)c(C)c1 (configuration not stated),1.21,–
Cc1nnc(C(C)NC(=O)C2(N(C)CCc3ccccc3)Cc3ccccc3C2)[nH]1 (configuration not stated),0.787,–
CCC1CN(Cc2ccc(OC)cc2)Cc2cc(OC)ccc2O1 (configuration not stated),–,0.786
CCOC(=O)C1(Cc2ccccc2C(F)(F)F)CCN(C2CCSC2)CC1 (configuration not stated),0.449,–
COCCC(=O)N1CCC(Oc2ccc(C(=O)NC3CCc4ccccc43)cc2)CC1 (configuration not stated),0.709,–
COc1ccccc1CCCNC(=O)C1CCC(=O)N(CCc2ccccn2)C1 (configuration not stated),0.89,–
COc1ccc(CN(Cc2ccncc2)C(=O)c2sccc2C)cc1OCc1ccccc1F,–,0.002
COc1cccc(CN2C(=O)NC(C)(C3CCN(C(=O)c4occc4C)CC3)C2=O)c1OC (configuration not stated),–,0.804
COCc1noc(-c2ccc(N3CCCCC3c3nccs3)nc2)n1 (configuration not stated),0.989,–
COCCC(=O)N(C)CC1CCCN(CCc2ccccc2OC)C1 (configuration not stated),0.933,–
COC(=O)CN(C)C(=O)C1CCC(=O)N(Cc2ccc(Cl)cc2)C1 (configuration not stated),0.91,–
COc1cccc(OCc2nc(C(=O)NC3CCOC(C)(C)C3)co2)c1 (configuration not stated),1.02,–
C[C@@H]1CCC[C@H](C)N1C(=O)c1coc(COc2cccc(C(F)(F)F)c2)n1,0.793,–
Cc1cccc(-c2cn[nH]c2C2CCCN(Cc3ccc4c(c3)CCO4)C2)c1 (configuration not stated),–,0.832

# Three of the compounds above, tab-delimited:
SMILES	bacterial growth OD600 (polymyxin B 1 µg/mL)	bacterial growth OD600 (polymyxin B 0.75 µg/mL)
COc1cccc(OCc2nc(C(=O)NC3CCOC(C)(C)C3)co2)c1 (configuration not stated)	1.02	–
C[C@@H]1CCC[C@H](C)N1C(=O)c1coc(COc2cccc(C(F)(F)F)c2)n1	0.793	–
Cc1cccc(-c2cn[nH]c2C2CCCN(Cc3ccc4c(c3)CCO4)C2)c1 (configuration not stated)	–	0.832
